The numbers were not newly measured in patent publication US11779768B2, “Protein activity modification” (Impulse Dynamics NV, priority 2004, dated 2023), which cites them from elsewhere.

Molecules are shown by their SMILES.

In the data set the target is CaM kinase. The settings on record: read-out: Inhibits CaM kinase IC50; advertised; cited from earlier work.

With `CN[C@@H]1C[C@H]2O[C@@](C)([C@@H]1OC)n1c3ccccc3c3c4c(c5c6ccccc6n2c5c31)C(=O)NC4` [STAUROSPORIN], the 50% inhibitory concentration (IC50) is 20 nM.
